“And” between values parts separate entries of the source, which are not always exact repeats. Identical values can stand only once. This is one part of the list.

This assay can be described thus: P. berghei load reduction in hepatocytes – cell-based, HepG2, luciferase luminescence, HepG2 viability, primary screen (AID 624349).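 Also: 100% = mean of DMSO negative control wells on the same plate.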 Conditions: P. berghei liver stage in HepG2, luciferase luminescence; measured here: HepG2 viability without parasites; concentration not given here.
For the compound `CN(CCCl)CCCl`, the viability was 70.5% and 68.2%.

The values above are taken from PubChem BioAssay AID624349 (ICCB-Longwood Screening Facility, Harvard Medical School, 2012).
